Consider 65 compounds from PubChem BioAssay AID493014 (National Center for Advancing Translational Sciences (NCATS), 2011).

This assay is described as follows: qHTS Assay to Find Inhibitors of Chronic Active B-Cell Receptor Signaling. The following applies: ABC-DLBCL IkBa-CBG/CBR reporter, luminescence ratio (green luciferase fused to IkBa over red control in TMD8 lymphoma cells), 4 h. In short, it runs like this: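 Concentration-response series (up to 46 uM) were applied to TMD8 dual-reporter cells for 4 h at 37C with doxycycline. Green/red ratio, after filter-overlap correction, defined %Activity; red signal alone was normalised to basal cells and zero luminescence.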
On the technique in general: qHTS replaces the single test concentration by a dilution series.

[1] abbreviates: measured here: CBR red luminescence, cell number.
[2] abbreviates: measured here: IkBa-CBG green luminescence.

The structures appear in SMILES notation. The list shows a part of the results. Shown are side measurements of this screen, not its main read-out; they come without a call. Most of these compounds were active or inconclusive in the main read-out, so they are no random draw. Words in brackets tell the shape of the fitted curve; partial curves, single points and poor fits give uncertain potencies.

By AC50 is commonly meant the concentration giving half of the maximal activity seen. On to `CCCn1c(SCC(=O)N2CCCc3ccccc32)nnc1-c1ccco1`, for which the AC50 under setting [1] is 5.01 µM [falling, partial curve].
Same read-out and setting: the same measure for `COc1ccc(/C=N/OCC(=O)NCc2cccs2)c(OC)c1`: 29.1 µM [rising, single point]; for `COc1ccc(C2=NN(C(=O)CSc3ncccn3)C(c3ccc(C)cc3)C2)cc1` (configuration not stated): 7.31 µM [rising, partial curve, poor fit].
On the same count and under the same terms, the same measure for `CN1CCN(CC(=O)Nc2ccc(OCc3ccccc3)cc2)CC1`: 0.411 µM [falling, full curve, poor fit].
The same measure, in the same setting: under `O=C(N/N=C\c1ccccc1F)c1ccc(-c2ccccc2)cc1` stands 3.55 µM [falling, single point]; under `Cc1cccc(NC2SC(=O)N(c3ccccc3)C2=O)c1` (configuration not stated), 29.1 µM [falling, partial curve, poor fit].
In the case of `CCc1c(C)nc2cc(-c3ccc(OC)c(OC)c3)nn2c1NCC1CC1`, the AC50 under setting [1] was 13 µM [falling, partial curve, poor fit].
The same measure, in the same setting: the same measure for `O=C(NCCc1cn2ccsc2n1)C1CCCCC1`: 4.11 µM [rising, partial curve, poor fit]; for `CCOc1ccc(N(CC(=O)NCCSCc2ccccc2)S(=O)(=O)c2ccccc2)cc1`: 6.31 µM [rising, partial curve, poor fit]; for `Cc1cc2ccccn2c1C(=O)c1nc(NCc2ccco2)ncc1Cl`: 3.55 µM [rising, full curve, poor fit].
In the case of `CCn1ncc(Cl)c1C(=O)Nc1ccc2c(c1)CCC2`, the AC50 under setting [1] was 2 µM [rising, full curve].
`O=C1CC(/C=C/c2ccccc2)=Nc2ccccc2N1`: the concentration at half-maximal activity (AC50) under setting [1] was 7.08 µM [falling, full curve].
The same measure, in the same setting: the same measure for `Cc1ccc2c(c1)=C(c1ccccc1)N(O)CC(=O)N=2`: 35.5 µM [rising, single point]; for `CCOC(=O)Nc1ccc(S(=O)(=O)Nn2cnnc2)cc1`: 14.1 µM [rising, single point].
For `COc1cc(/C=C(\C#N)c2nc3ccccc3o2)ccc1O`, the AC50 reads like this: under setting [1], 22.4 µM [falling, single point]; under setting [2], 6.31 µM [rising, partial curve, poor fit].
For the compound `O=C(CNc1ccccc1)N/N=C/c1ccc([N+](=O)[O-])o1`, the AC50 under setting [1] was 11.2 µM [falling, partial curve, poor fit].
As to `Cc1nn2c(=O)cc(COC(=O)c3c(F)cccc3Cl)nc2s1`, under setting [1], the concentration at half-maximal activity (AC50) was 13 µM [falling, partial curve].
Still for that read-out and setting: the same measure for `CSc1nc2c(c(=O)n1Cc1ccccc1)SC(C)C2` (configuration not stated): 6.51 µM [falling, single point].
As to `Cc1ccccc1N=C/C=C1/C=C(c2ccccc2)OC(C)(C)O1`, the concentration at half-maximal activity (AC50) under setting [1] is 16.4 µM [falling, partial curve].
For the compound `Cc1cccc(CN2C(=O)N/C(=C/c3ccc(C)s3)C2=O)c1`, the AC50 under setting [1] was 0.517 µM [falling, full curve].
Consider `CCN(CC)S(=O)(=O)c1ccc(-c2nnc(SCC(=O)Nc3cc(OC)cc(OC)c3)o2)cc1`, for which, under setting [1], the half-maximal activity concentration (AC50) was 0.116 µM [rising, full curve, poor fit].
For the compound `Cc1ccc(N(Cc2cc(=O)[nH]c3ccccc23)C(=O)c2ccco2)cc1`, the half-maximal activity concentration (AC50) under setting [1] was 29.1 µM [falling, single point].
Same read-out and setting: the same measure for `CCCOC(=O)c1c(N)sc(C(=O)OCC)c1C`: 7.31 µM [rising, full curve, poor fit]; for `CCc1ccc(OCC2c3cc(OC)c(OC)cc3CCN2C(=O)COc2ccccc2)cc1` (configuration not stated): 22.4 µM [falling, single point].
As to `CC(C)N1CCC(=NNC(=O)c2cccs2)CC1`, the AC50 under setting [1] was 14.1 µM [falling, partial curve, poor fit].
`Cc1ccc(Cn2nnc3c(=O)n(CC(=O)NCc4ccccc4)cnc32)cc1`: the AC50 by setting is: under setting [1], 25.1 µM [rising, single point]; under setting [2], 25.1 µM [falling, single point].
Consider `Cc1cccc(C(=O)c2c[nH]cc2-c2ccccc2)c1`, for which, under setting [1], the half-maximal activity concentration (AC50) was 5.17 µM [rising, partial curve, poor fit].
On the same count and under the same terms, the same measure for `CCOC(=O)[C@H]1[C@H]2COc3ccccc3[C@@H]2N2C(=O)c3cc(C)ccc3NC(=O)[C@@]12C`: 29.1 µM [falling, single point].
Take `COc1cc(/C=C2\C(=N)N3N=C(S(C)(=O)=O)SC3=NC2=O)ccc1OS(=O)(=O)c1ccc(C)cc1`: under setting [1], the half-maximal activity concentration (AC50) was 0.562 µM [falling, full curve, poor fit].
For `O=C(COc1cccc2ccccc12)Nc1nc2ccccc2[nH]1`, under setting [1], the concentration at half-maximal activity (AC50) was 16.4 µM [falling, single point].
For the compound `CCOc1cccc(=O)c2c(C)n(CC3CCCO3)c(C)c12` (configuration not stated), under setting [1], the AC50 was 4.47 µM [rising, full curve, poor fit].
With `Cc1cc(=O)[nH]c(=S)[nH]1`, under setting [1], the AC50 is 3.66 µM [rising, partial curve, poor fit].
Regarding `O=C(Nc1cc(C(F)(F)F)ccc1N1CCOCC1)c1ccccc1`, the half-maximal activity concentration (AC50) under setting [1] was 0.184 µM [falling, full curve, poor fit].
The same measure, in the same setting: the same measure for `CC(=O)N1CCc2cc(S(=O)(=O)CCC(=O)NCc3ccc(Cl)cc3)ccc21`: 0.631 µM [falling, partial curve, poor fit]; for `CCc1ccc(NC(=O)CSC2=Nc3ccccc3C3=NC(CC(=O)NCc4ccccc4)C(=O)N23)cc1` (configuration not stated): 15.8 µM [falling, single point]; for `COC(=O)CCN(c1ccccc1)S(=O)(=O)c1cc(-c2cc(C)no2)ccc1OC`: 4.47 µM [falling, partial curve, poor fit].
With `CCCCCc1ccc(-c2cn(Cc3ccc(C)cc3)nn2)cc1`, the AC50 under setting [1] was 6.31 µM [falling, single point].
The same measure, in the same setting: under `O=Cc1cn(-c2ccc(F)cc2)c2ccccc12` stands 14.6 µM [rising, partial curve, poor fit]; under `CCCc1cc(C(=O)Nc2nccs2)cs1`, 10.3 µM [falling, partial curve, poor fit]; under `O=C(O)CN1C(=O)/C(=C/c2cccc(Cl)c2)Oc2ccccc21`, 0.316 µM [rising, full curve].
For `Nc1nc(-c2ccc(NC(=O)c3ccco3)cc2)cs1`, the half-maximal activity concentration (AC50) under setting [1] was 6.31 µM [falling, full curve].
Turning to `CCCC(c1nnnn1Cc1ccc(F)cc1)N1CCN(C2CCCCC2)CC1` (configuration not stated), the AC50 under setting [1] was 35.5 µM [falling, single point].
Regarding `Cn1ccc2c(OCC(=O)Nc3cc(C(F)(F)F)ccc3Cl)cccc2c1=O`, the concentration at half-maximal activity (AC50) under setting [1] is 14.1 µM [rising, single point].
For `COCCCNCC(O)COc1ccccc1F` (configuration not stated), the AC50 under setting [1] was 3.98 µM [falling, full curve].
On the same count and under the same terms, the same measure for `COc1ccc(/C=C/C(=O)Nc2ccccc2C(=O)O)cc1`: 0.501 µM [falling, full curve]; for `CN(C)CCNC(=O)c1coc(=O)c(Br)c1`: 2.82 µM [rising, partial curve, poor fit].
Same read-out and setting: the same measure for `CC1CCN(C(=O)Cn2cc3c(n2)CCCC3)CC1`: 29.1 µM [rising, single point]; for `Cc1cc(NC(=O)COC(=O)c2cc([N+](=O)[O-])ccc2N2CCOCC2)ccc1Br`: 7.31 µM [rising, partial curve, poor fit].
On the same count and under the same terms, under `O=[N+]([O-])c1ccc(CN2CCN(c3ccc4ccccc4n3)CC2)cc1` stands 35.5 µM [rising, single point]; under `CNC(=O)/C=C/c1cccc(C(F)(F)F)c1`, 6.51 µM [rising, full curve, poor fit]; under `Cc1ccc(S(C)=O)cc1-n1c(=O)n(Cc2ccccc2)c(=O)c2[nH]cnc21` (configuration not stated), 2.82 µM [rising, single point].
For the compound `Cc1cccc(NC(=O)Cn2cnc3c(oc4ccccc43)c2=O)c1`, the concentration at half-maximal activity (AC50) under setting [1] was 22.4 µM [rising, single point].
Take `COc1ccc(CCNC(=O)C(=O)NCC(c2ccco2)S(=O)(=O)c2ccc(F)cc2)cc1` (configuration not stated): under setting [1], the AC50 is 7.94 µM [rising, single point].
In the case of `CCCCn1c(C)nc2cc(S(=O)(=O)N3CCOCC3)ccc21`, under setting [1], the AC50 is 23.1 µM [rising, partial curve, poor fit].
Still for that read-out and setting: the same measure for `C=CCCC(=O)Nc1ccc(COC(=O)N2CCOCC2)cc1`: 6.51 µM [falling, single point]; for `CC(=O)N1/C(=C/c2ccc(N(C)C)cc2)C(=O)c2ccccc21`: 35.5 µM [falling, single point].
Still for that read-out and setting: the same measure for `C=CCOc1cccc(C(=O)N2CCC(CCC(=O)NC3CC3)CC2)c1`: 6.31 µM [falling, partial curve, poor fit]; for `COc1ccc(CNC(=O)CN(C(=O)CCC(=O)Nc2ccccn2)c2ccccc2OC)cc1`: 3.98 µM [falling, partial curve, poor fit]; for `COC(=O)CCCCCNc1ccc(C(=O)OC)cc1N`: 8.2 µM [falling, partial curve].
The same measure, in the same setting: the same measure for `CC(=O)C1=C(O)C(=O)N(c2nccs2)C1c1ccc(Br)cc1` (configuration not stated): 2.59 µM [rising, partial curve, poor fit]; for `O=C(Nc1ccccc1)OCc1cc(-c2ccccc2Cl)on1`: 1.78 µM [rising, full curve, poor fit]; for `O=C(Nc1ccc(N2CCCCCC2)cc1)c1ccc[nH]1`: 20.6 µM [falling, partial curve].
`C/C(=N/Nc1ccc([N+](=O)[O-])cc1)c1ccc(C)cc1C`: under setting [1], the AC50 is 0.708 µM [rising, partial curve].
Turning to `CNC(=O)c1c(Br)cnn1-c1ccc(C)cc1`, the AC50 under setting [1] was 25.1 µM [rising, single point].
Still for that read-out and setting: the same measure for `COc1cc(-c2ccc(Nc3ccccc3C(=O)O)c(OC)c2)ccc1Nc1ccccc1C(=O)O`: 11.2 µM [falling, single point].
